# Results are given in words; binding and its absence hold for the method and conditions named.
# B1: Drosophila melanogaster GTPase Rap1 G12V (amino acids 1-180), GMPPNP-loaded (enzyme, UniProt P08645 1-180, looked up)
# chain: MREYKIVVLGSVGVGKSALTVQFVQCIFVEKYDPTIEDSYRKQVEVDGQQCMLEILDTAGTEQFTAMRDLYMKNGQGFVLVYSITAQSTFNDLQDLREQILRVKDTDDVPMVLVGNKCDLEEERVVGKELGKNLATQFNCAFMETSAKAKVNVNDIFYDLVRQINKKSPEKKQKKPKKSL
# B2: Drosophila melanogaster Cno RA1 domain (amino acids 1-137) (domain or fragment, UniProt Q24279 1-137, looked up)
# chain: MSHDKKMLDREAVRSVIQQWNANRLDLFALSEPDENLLFHGVMRFYFQDAGQKVATKCIRVASDATVTDVIDTLIEKFRPDMRMLSVPNYALYEVHANGEERRLNADEKPLLVQLNWHIDDREGRFLLKNIDQKTTP
# B3: Drosophila melanogaster Cno RA2 domain (amino acids 222-350) (domain or fragment, UniProt Q24279 222-350, looked up)
# chain: TRSISNPEAVMRRRRQQKLEKKLQQFRSRDGGPDTGGTLKIYGESLCQDVPYKTLLLSIRDCAQAVVREMLTKYGLEKADPLHYCLVQVNSDGTEYILDDDECPLSILMNHPTSRGSIMFHVRRRPADS
# Tests used:
# Test in all cases: SEC-MALS
# [1] = molecular target: Drosophila melanogaster GTPase Rap1 G12V (amino acids 1-180), GMPPNP-loaded (Drosophila melanogaster) (UniProt P08645)
# [2] = molecular target: Drosophila melanogaster Cno RA1 domain (amino acids 1-137) (Drosophila melanogaster) (UniProt Q24279)
# [3] = molecular target: Drosophila melanogaster Cno RA2 domain (amino acids 222-350) (Drosophila melanogaster) (UniProt Q24279)
binder,measurement,setting,value
B1,binding,[1],no binding (tested: 200 µM)
B2,binding,[2],no binding (tested: 200 µM)
B3,binding,[3],no binding (tested: 200 µM)

# Source: article doi:10.1101/2024.07.29.605598 (bioRxiv, 2024)
